From PubChem BioAssay record AID544 (NCATS, 2006).

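Human SH-SY5Y neuroblastoma cells in 1536-well plates, with viability measured as luciferase light from cellular ATP; exposure time is not stated here.
Percent change in viability at the top tested concentration, normalized between DMSO (0) and full tamoxifen kill (-100); more negative means stronger cytotoxicity.
Calls follow curve shape, fit quality and efficacy: good complete curves, or partial curves with high efficacy, are active; flat curves are inactive; anything else is inconclusive.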

Values are in %.
Common to all entries: at 92.2 µM (top of the series).
All entries here are filed as inconclusive.
Only part of the assay is shown, chiefly results filed as inconclusive.
An entry listed twice with the same setting is a separate test.

| # | structure | viability change (%) |
|---|---|---|
| 1 | `c1ccc(Nc2ccc3ccccc3c2)cc1` | -35.35 |
| 2 | `Nc1cc(Cl)c(N)c(Cl)c1` | -38.78 |
| 3 | `Oc1cc(Cl)c(Cl)c(Cl)c1` | -52.9 |
| 4 | `O=C(O)c1cc(O)c(O)c(O)c1` | -51.51 |
| 5 | `O=C1OC(=O)c2ccccc21` | -59.66 |
| 6 | `Clc1nc2ccccc2nc1Cl` | -33.29 |
| 7 | `CC(=O)[O-].CC(=O)[O-].O.O.[Cd+2]` | -62.34 |
| 8 | `CN(C)c1ccc(N=NS(=O)(=O)O)cc1` | -30.14 |
| 9 | `O=C=Nc1ccc(Cl)c(Cl)c1` | -67.46 |
| 10 | `BrCC(Br)(Br)Br` | -60.06 |
| 11 | `CCOC(=O)CC(SP(=O)(OC)OC)C(=O)OCC` (centres undefined) | -78.8 |
| 12 | `O=CCCCC=O` | -64.52 |
| 13 | `CC/C=C/C/C=C/C/C=C/CCCCCCCC(=O)OCC` | -51.54 |
| 14 | `Oc1c(Cl)c(Cl)cc(Cl)c1Cl` | -45.13 |
| 15 | `COc1ccc(C(c2ccc(OC)cc2)C(Cl)(Cl)Cl)cc1` | -31.35 |
| 16 | `CC(C)(COCC1CO1)COCC1CO1` (centres undefined) | -70.75 |
| 17 | `CO[C@H]1/C=C/O[C@@]2(C)Oc3c(C)c(O)c4c(O)c(c5c(c4c3C2=O)NC2(CCN(CC(C)C)CC2)N=5)=NC(=O)/C(C)=C\C=C\[C@H](C)[C@H](O)[C@@H](C)[C@@H](O)[C@@H](C)[C@H](OC(C)=O)[C@@H]1C` | -63.88 |
| 18 | `CCOc1ccc2c(c1)C(C)=CC(C)(C)N2` | -70.4 |
| 19 | `BrCC(Br)C1CCC(Br)C(Br)C1` (centres undefined) | -41.1 |
| 20 | `COc1ccc(C(c2ccc(OC)cc2)C(Cl)(Cl)Cl)cc1` | -30.93 |
| 21 | `COc1ccc(/C=C/c2cc(OC)cc(=O)o2)cc1` | -36.34 |
| 22 | `c1ccc(Nc2ccc(Nc3ccccc3)cc2)cc1` | -51.09 |
| 23 | `C[C@H]1CCC[C@H](O)CCCCCc2cc(O)cc(O)c2C(=O)O1` | -57.51 |
| 24 | `COc1cc(/C=C/c2ccccc2)oc(=O)c1` | -38.24 |
| 25 | `Nc1ccc([N+](=O)[O-])cc1N` | -58.62 |
| 26 | `CC1(N)CCC(C(C)(C)N)CC1` (centres undefined) | -35.82 |
| 27 | `Oc1cccc(O)c1` | -58.34 |
| 28 | `Nc1ccc2c(c1)C(=O)c1ccccc1C2=O` | -31.85 |
| 29 | `O=C1c2ccccc2C(=O)C1(O)O` | -69.31 |
| 30 | `Nc1ccc(-c2ccc(N)c(O)c2)cc1O` | -40.04 |
| 31 | `O=[N+]([O-])c1cccc(CCl)c1` | -33.99 |
| 32 | `O=S1OCC2C(CO1)C1(Cl)C(Cl)=C(Cl)C2(Cl)C1(Cl)Cl` (centres undefined) | -30.47 |
| 33 | `Clc1ccc(C(c2ccccc2Cl)C(Cl)(Cl)Cl)cc1` (centres undefined) | -44.86 |
| 34 | `CC(C)(C)C(=O)C1C(=O)c2ccccc2C1=O` | -79.38 |
| 35 | `Nc1ccccc1N` | -65.07 |
| 36 | `Cc1cc(N=Nc2ccccc2C)ccc1N` | -35.72 |
| 37 | `O=C(O)C(Br)Br` | -50.38 |
| 38 | `CN(C)c1ccc(N=Nc2ccccc2)cc1` | -31.11 |
| 39 | `Nc1ccc(Cl)cc1N` | -42.65 |
| 40 | `O=c1c(O)c(-c2ccc(O)cc2)oc2cc(O)cc(O)c12` | -38.27 |
| 41 | `Oc1cc(Cl)c(Cl)c(Cl)c1Cl` | -62.3 |
| 42 | `Oc1c(Cl)c(Cl)c(Cl)c(Cl)c1Cl` | -54.74 |
| 43 | `c1ccc(N=NNc2ccccc2)cc1` | -45.21 |
| 44 | `Oc1cc(Cl)cc(Cl)c1Cl` | -48.32 |
| 45 | `CC(C)(OOC(C)(C)c1ccccc1)c1ccccc1` | -42.65 |
| 46 | `ClP(Cl)(Cl)(Cl)Cl` | -41.9 |
| 47 | `Cc1ccccc1N` | -74.76 |
| 48 | `Cc1c(C(=O)O)c(O)cc2c1C(=O)c1c(O)c([C@H]3O[C@H](CO)[C@@H](O)[C@H](O)[C@H]3O)c(O)c(O)c1C2=O` | -74.6 |
| 49 | `Oc1cccc2cccnc12` | -70.54 |
| 50 | `O=[N+]([O-])c1cc(N(CCO)CCO)ccc1NCCO` | -50.35 |
| 51 | `Oc1ccc(O)c2c(O)cccc12` | -72.94 |
| 52 | `c1ccc2c(c1)ccc1ccccc12` | -55.22 |
| 53 | `Oc1ccc(Cl)cc1Cc1ccccc1` | -42.34 |
| 54 | `COC1=CC(=O)OC(CCc2ccc3c(c2)OCO3)C1` (centres undefined) | -76.16 |
| 55 | `Cc1ccc(S(=O)(=O)Oc2ccc(N=Nc3ccc(-c4ccc(N=Nc5c(O)ccc6cc(S(=O)(=O)O)cc(S(=O)(=O)O)c56)c(C)c4)cc3C)cc2)cc1` | -67.71 |
| 56 | `[Cd+2].[Cl-].[Cl-]` | -83.6 |
| 57 | `O=C(O)C(Br)CBr` (centres undefined) | -50.61 |
| 58 | `Nc1ccc(N=Nc2ccccc2)c(N)n1` | -43.56 |
| 59 | `S=C1NC=NC2N=CNC12` (centres undefined) | -43.35 |
| 60 | `NC(=NCCCCCCN=C(N)/N=C(\N)Nc1ccc(Cl)cc1)/N=C(\N)Nc1ccc(Cl)cc1` | -68.87 |
| 61 | `CC(C)(C)OOC(=O)c1ccccc1` | -52.25 |
| 62 | `C=CC(=O)OCCO` | -69.29 |
| 63 | `CC[n+]1c(-c2ccccc2)c2cc(N)ccc2c2ccc(N)cc21` | -53.85 |
| 64 | `COP(=O)(OC)OC=C(Cl)Cl` | -33.44 |
| 65 | `CC(=O)Nc1cccc(C)c1` | -31.74 |
| 66 | `Oc1cccc(O)c1O` | -37.55 |
| 67 | `O=C(Cl)c1ccc([N+](=O)[O-])cc1` | -42.43 |
| 68 | `CCOCN(C(=O)CCl)c1c(C)cccc1CC` | -78.98 |
| 69 | `C[Si](C)(C)Cl` | -41.48 |
| 70 | `CC(=O)O[C@]1(C(C)=O)CC[C@H]2[C@@H]3C[C@H](C)C4=CC(=O)CC[C@]4(C)[C@H]3CC[C@@]21C` | -50.33 |
| 71 | `O=C/C=C/c1ccccc1` | -61.65 |
| 72 | `Nc1nc(-c2ccccc2)cs1` | -39.43 |
| 73 | `CNC(=O)O/N=C/C(C)(C)S(C)=O` (centres undefined) | -48.39 |
| 74 | `CCNc1cc(O)ccc1C` | -30.85 |
| 75 | `COc1ccc(C)cc1N` | -46.78 |
| 76 | `Brc1ccc(Oc2ccc(Br)cc2Br)c(Br)c1` | -41.37 |
| 77 | `CC(C)(c1ccc(OCC2CO2)cc1)c1ccc(OCC2CO2)cc1` (centres undefined) | -71.68 |
| 78 | `CCCCC(CC)CN` (centres undefined) | -32.16 |
| 79 | `O=[N+]([O-])c1cc(C(F)(F)F)cc([N+](=O)[O-])c1Cl` | -30.58 |
| 80 | `Cc1ccc(N)cc1N` | -60.76 |
| 81 | `Oc1ccc(Cl)cc1Sc1cc(Cl)ccc1O` | -77.14 |
| 82 | `NCCO` | -78.72 |
| 83 | `Oc1c(Cl)cc(Cl)c(Cl)c1Cl` | -34.34 |
| 84 | `CN(C)/N=N/c1nc[nH]c1C(N)=O` | -45.24 |
| 85 | `O=[N+]([O-])c1ccc2c3c(cccc13)CC2` | -36.23 |
| 86 | `Nc1ccc(N=Nc2ccccc2)c(N)c1` | -38.47 |
| 87 | `C[C@]12CCC(=O)C=C1CC[C@@H]1[C@@H]2CC[C@@]2(C)[C@H]1CC[C@]2(C)O` | -58.24 |
| 88 | `C[C@@H]1CC2(OC(O)[C@]3(C)O[C@H]23)O[C@H]2C[C@@]3(C)[C@@H]4CC[C@H]5C(C)(C)C(O[C@@H]6OC[C@@H](O)[C@H](O)[C@H]6O)CC[C@@]56C[C@@]46CC[C@]3(C)[C@@H]12` (some centres undefined) | -49.79 |
| 89 | `CCc1cccc(CC)c1N(COC)C(=O)CCl` | -46.41 |
| 90 | `Brc1cc(Oc2cc(Br)c(Br)c(Br)c2Br)c(Br)c(Br)c1Br` | -35.93 |
| 91 | `O=C1OC2(c3cc(Br)c(O)c(Br)c3Oc3c2cc(Br)c(O)c3Br)c2c(Cl)c(Cl)c(Cl)c(Cl)c21` | -33.07 |
| 92 | `Nc1ccccc1O` | -62.54 |
| 93 | `Oc1c(Br)c(Br)c(Br)c(Br)c1Br` | -43.61 |
| 94 | `Cn1cnc([N+](=O)[O-])c1Sc1ncnc2nc[nH]c12` | -66.07 |
| 95 | `COc1cc(CNC(=O)CCCC/C=C/C(C)C)ccc1O` | -30.12 |

6 of the entries, repeated:

structure,viability change (%)
Oc1cccc(O)c1,-58.34
Oc1cc(Cl)c(Cl)c(Cl)c1,-52.9
Oc1c(Cl)c(Cl)c(Cl)c(Cl)c1Cl,-54.74
CO[C@H]1/C=C/O[C@@]2(C)Oc3c(C)c(O)c4c(O)c(c5c(c4c3C2=O)NC2(CCN(CC(C)C)CC2)N=5)=NC(=O)/C(C)=C\C=C\[C@H](C)[C@H](O)[C@@H](C)[C@@H](O)[C@@H](C)[C@H](OC(C)=O)[C@@H]1C,-63.88
Clc1nc2ccccc2nc1Cl,-33.29
CC(=O)Nc1cccc(C)c1,-31.74